Assay results from PubChem BioAssay AID953 (National Center for Advancing Translational Sciences (NCATS), 2007).
The inconclusive results got no clear call from the source; some entries with a clear call stand among them for comparison. A potency beside an inconclusive call is a rough fit, not a confirmed value. Active and inactive are the calls of the source. Calls follow the shape of the dose curve; as a rule, active = well fitted curve in the direction sought with a large enough effect; inconclusive = small, poorly fitted or top-dose-only effect, or effect the other way, or another doubt; inactive = no such curve, though single readings can be large or run the other way.

Assay: Confirmation Concentration-Response Assay for Agonists of the Thyroid Stimulating Hormone Receptor: Activators of Intracellular cAMP Concentrations in Parental HEK 293
Conditions: parental HEK293 CNG biosensor, cAMP membrane potential fluorescence; series mostly up to 32.9 µM
Description: NIH Chemical Genomics Center [NCGC] NIH Molecular Libraries Screening Centers Network [MLSCN] MLSCN Grant: 1 X01 MH080680-01 PI Name: Dr. Marvin Gershengorn NCGC Assay Overview: This cell based assay utilized a cyclic nucleotide gated ion channel (CNG) as a biosensor for cAMP induction. HEK 293 cells stably expressing the modified CNG were purchased from BD biosciences (http://www.atto.com/products/actone/features_benefits.shtml) . Stimulation of cAMP production causes the CNG to open and subsequent membrane depolarization to occur. A fluorescent membrane potential dye (BD biosciences) was utilized to detect cAMP stimulation in cells. The cells were maintained in DMEM medium (Invitrogen) containing 10 % FBS (Hyclone), 100 units/ml Penicillin, 100 ug/ml Streptomycin (Invitrogen), and 250 ug/ml Geneticin (Invitrogen) and 1 ug/ml Puromycin (Invitrogen) at 37C in 5% CO2. This assay was used as a counterscreen to "Confirmation Concentration-Response Assay for Agonists of the Thyroid Stimulating Hormone Receptor", to control for compounds signaling through endogenous receptors and other targets of HEK 293 cells.
NCGC Assay Protocol Summary: High Throughput Screening. Freshly passaged cells were dispensed into 1536-well assay plates at 4 ul/well in DMEM containing phenol red (Invitrogen), 10% FCS (Hyclone), and 100 units/ml Penicillin, 100 ug/ml Streptomycin (Invitrogen) and incubated at 37 C with 5% CO2 for 20 to 36 hrs before the robotic screening. The screen was initiated by addition of 4 ul/well membrane potential dye containing 100 uM RO 20-1724 (Sigma Aldrich), followed by 60 min incubation at room temperature to allow for dye equilibration across the cell membrane. 23 nl/well compound or control was then added to the assay plates, which were incubated for additional 30 min before reading a Envision fluorescence plate reader (Perkin Elmer) in bottom-read mode for fluorescence intensity (emission at 590 nm). Keywords: cAMP, CNG Ion Channel, quantitative high throughput screening, qHTS, HTS, probe identification, CNG, cAMP, cyclic nucleotide gated ion channel PubChem

Compound	Potency
Cc1ccccc1N1CCN(c2ncnc3c2cnn3Cc2ccc(Cl)cc2)CC1	inconclusive: 0.398 µM [activator, full curve, poor fit]
Cc1ccc(C)c(N(C(=O)Cn2nnc(-c3cccs3)n2)C(C(=O)NC2CC2)c2ccc(C)o2)c1 (centres undefined)	inconclusive: 12.6 µM [activator, partial curve]
COc1ccc(S(=O)(=O)NCCC(=O)NCc2ccc(F)cc2)cc1	inactive
COC(=O)C1=C(C)NC(=O)NC1c1cn(-c2ccccc2)nc1-c1cccs1 (centres undefined)	inactive
C=C(C)Cn1c(-c2ccccc2)nc2ccccc21	inconclusive: 12.6 µM [activator, partial curve]
Cc1nc2ccc(NC(=O)c3ccc(S(=O)(=O)N4CCOCC4)cc3)cc2s1	inconclusive: 12.6 µM [activator, partial curve]
CCN(CC)S(=O)(=O)c1ccc(Cl)c(C(=O)NC2CCCC2)c1	inconclusive: 7.94 µM [activator, partial curve]
O=C(c1cc(-c2cccs2)on1)N1CCCc2ccccc21	inconclusive: 12.6 µM [activator, partial curve]
CCOc1cc(C(=O)N(C)c2ccccc2)cc(OCC)c1OCC	inactive
